No constants are given. Whether binding was seen depends on the method and setting. Binding seen in cells or lysates may run through a third protein. A yes stands for co-enrichment or nearness to the bait. Other partners may have been found. Where a sequence is shown, tags or fusion partners need not be part of it.
Target: T1, SPTLC2^FLAG (WT-SPTLC2 with C-terminal 3xFLAG), in Flp-In T-REx 293 SPTLC2-KO cells (human) (UniProt O15270)
T1 sequence: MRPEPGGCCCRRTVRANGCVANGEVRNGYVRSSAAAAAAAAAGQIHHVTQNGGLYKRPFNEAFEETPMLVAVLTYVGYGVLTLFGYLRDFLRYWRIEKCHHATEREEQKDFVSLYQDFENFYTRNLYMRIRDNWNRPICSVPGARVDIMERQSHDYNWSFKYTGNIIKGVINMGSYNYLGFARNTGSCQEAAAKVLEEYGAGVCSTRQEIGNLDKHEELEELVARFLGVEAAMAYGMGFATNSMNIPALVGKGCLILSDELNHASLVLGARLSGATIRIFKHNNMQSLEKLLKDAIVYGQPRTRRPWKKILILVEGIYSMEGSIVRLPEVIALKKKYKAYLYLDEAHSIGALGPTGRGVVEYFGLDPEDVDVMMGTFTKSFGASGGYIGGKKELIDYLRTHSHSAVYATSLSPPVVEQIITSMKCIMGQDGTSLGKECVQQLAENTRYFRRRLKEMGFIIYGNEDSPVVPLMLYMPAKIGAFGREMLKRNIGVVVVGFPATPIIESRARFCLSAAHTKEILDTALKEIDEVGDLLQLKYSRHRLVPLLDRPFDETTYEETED
Assay: affinity purification with mass spectrometry; heavy membrane fractions of Flp-In T-REx 293 SPTLC2-KO cells with or without SPTLC2^FLAG, solubilised with digitonin (50 mM TRIS pH 7.4, 150 mM NaCl), anti-FLAG magnetic M2 beads 3 h, eluted with 100 mM glycine pH 2.5, mass spectrometry

Sequences of proteins named here, by UniProt entry; tags and fusion partners are left off. Residues count along the entry.
UniProt Q9UKV5: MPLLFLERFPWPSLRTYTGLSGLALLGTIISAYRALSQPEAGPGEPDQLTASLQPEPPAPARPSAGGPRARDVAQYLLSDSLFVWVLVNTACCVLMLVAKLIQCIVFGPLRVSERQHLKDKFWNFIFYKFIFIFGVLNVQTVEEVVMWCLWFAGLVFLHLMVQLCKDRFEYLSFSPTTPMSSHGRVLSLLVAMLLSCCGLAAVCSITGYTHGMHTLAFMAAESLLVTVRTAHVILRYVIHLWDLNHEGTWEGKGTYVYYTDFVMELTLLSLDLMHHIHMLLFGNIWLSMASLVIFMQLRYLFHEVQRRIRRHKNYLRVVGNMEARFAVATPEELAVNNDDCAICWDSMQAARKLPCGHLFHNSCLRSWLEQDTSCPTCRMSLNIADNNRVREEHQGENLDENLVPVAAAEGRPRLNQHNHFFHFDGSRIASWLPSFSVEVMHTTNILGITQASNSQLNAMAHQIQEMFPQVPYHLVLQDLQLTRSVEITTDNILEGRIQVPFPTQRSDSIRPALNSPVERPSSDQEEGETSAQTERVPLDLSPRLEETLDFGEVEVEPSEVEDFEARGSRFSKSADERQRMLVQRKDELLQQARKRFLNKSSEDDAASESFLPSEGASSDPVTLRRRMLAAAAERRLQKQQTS
UniProt P27824, residues 21-592: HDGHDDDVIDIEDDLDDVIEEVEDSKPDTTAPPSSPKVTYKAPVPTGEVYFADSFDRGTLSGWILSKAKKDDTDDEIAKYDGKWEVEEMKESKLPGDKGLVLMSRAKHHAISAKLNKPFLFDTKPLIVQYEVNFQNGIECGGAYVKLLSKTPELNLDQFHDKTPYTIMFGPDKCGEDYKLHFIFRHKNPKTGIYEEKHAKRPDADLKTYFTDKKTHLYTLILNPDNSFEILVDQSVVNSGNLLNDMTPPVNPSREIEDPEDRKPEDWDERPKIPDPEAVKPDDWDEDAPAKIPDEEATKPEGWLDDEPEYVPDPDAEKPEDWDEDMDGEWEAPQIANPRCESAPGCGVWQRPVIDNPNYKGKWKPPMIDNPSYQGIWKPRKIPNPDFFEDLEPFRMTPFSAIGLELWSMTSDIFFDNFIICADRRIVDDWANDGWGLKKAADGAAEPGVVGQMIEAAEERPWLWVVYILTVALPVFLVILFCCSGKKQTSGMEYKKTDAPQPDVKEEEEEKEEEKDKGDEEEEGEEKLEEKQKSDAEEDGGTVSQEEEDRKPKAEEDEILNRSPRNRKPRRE
UniProt Q15388: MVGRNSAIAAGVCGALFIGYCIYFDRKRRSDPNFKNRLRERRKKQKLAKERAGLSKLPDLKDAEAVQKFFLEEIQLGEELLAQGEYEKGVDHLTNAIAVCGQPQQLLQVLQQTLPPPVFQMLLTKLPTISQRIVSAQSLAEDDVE

binding | Substance
binds | AMFR (from UniProt Q9UKV5 1-643)
binds | CANX (from UniProt P27824 21-592)
binds | CLPB (human (endogenous in Flp-In T-REx 293))
binds | TOMM20 (from UniProt Q15388 1-145)
